Measurements published in PubChem BioAssay AID248 (DTP/NCI, 2004).
The list does not hold the whole screen: it gathers tests that were run many times, whatever their T/C, doses with no T/C, and many T/C values between a quarter and a half above the control. Other doses and runs of a compound stand elsewhere. T/C is the treated group as % of the vehicle group. Some entries give survivors of the animals treated and no T/C: the source holds a T/C of zero for them, seemingly a mark for toxic or unscored doses. Some doses without a T/C left all or most animals alive at the check, yet need not have been tolerated: the source hardly ever lists a survival T/C far under the control, and the zero likely stands for such cases as well. Counts of survivors are from the toxicity check (mostly the fifth day) where no day follows; animals may have died later. Schedules are NCI's codes, taken here to give the interval after Q, in days (D) or hours (H), and the number of doses after X. Some schedules carry Z or #; the key to these is not given. Some molecules as drawn cover several salts, stereoisomers or complexes of the source; a dose is that of the sample tested.

Test system: L1210 leukemia ip in BDF1 mice, survival T/C
Test: NCI In Vivo Anticancer Drug Screen. Data for tumor model L1210 Leukemia (intraperitoneal) in B6D2F1 (BDF1) mice
Details: T/C endpoint: mean survival time, higher T/C = longer survival
[1] = dose: 200.0 mg/kg/injection, schedule: Q01DX001 (ip), vehicle: saline
[2] = dose: 400.0 mg/kg/injection, schedule: Q01DX001 (ip), vehicle: saline
[3] = dose: 100.0 mg/kg/injection, schedule: Q04DX003 (ip), vehicle: saline with Tween-80
[4] = dose: 400.0 mg/kg/injection, schedule: Q04DX003 (ip), vehicle: saline with Tween-80

**Q.** How did the survivor count (dose: 50.0 mg/kg/injection, schedule: Q01DX009 (ip), vehicle: Klucel (hydroxypropylcellulose) (HPC)) turn out when `CC(C)(C#N)c1ccnc2ccccc12` was run?
**A.** 2 of 6

**Q.** What about the survivor count (dose: 100.0 mg/kg/injection, schedule: Q04DX003 (ip), vehicle: Klucel (hydroxypropylcellulose) (HPC)) of the same compound?
**A.** 0 of 6

**Q.** And the survivor count (dose: 200.0 mg/kg/injection, schedule: Q04DX003 (ip), vehicle: Klucel (hydroxypropylcellulose) (HPC))?
**A.** 0 of 6

**Q.** What about the survivor count (dose: 400.0 mg/kg/injection, schedule: Q04DX003 (ip), vehicle: Klucel (hydroxypropylcellulose) (HPC)) of the same compound?
**A.** 0 of 6

**Q.** Which results are given for `CCOc1ccn(C)c(=O)n1`?
**A.** survivor count [1]: 1 of 4; survivor count [2]: 0 of 4

**Q.** `CN(N)C(=O)Nc1ccccc1` was tested. Which survivor count (dose: 300.0 mg/kg/injection, schedule: Q01DX001 (ip), vehicle: carboxymethylcellulose (CMC)) did it give?
**A.** 0 of 6

**Q.** With `CCN(CC)CCn1ncc2c1C1(C)CCC2C1(C)C` (stereo not given) as the compound, how does the survivor count (dose: 400.0 mg/kg/injection, schedule: Q04DX003 (ip), vehicle: saline) read?
**A.** 0 of 6

**Q.** How did the survivor count (dose: 200.0 mg/kg/injection, schedule: Q01DX009 (ip), vehicle: Klucel (hydroxypropylcellulose) (HPC)) turn out when `CC(C)NNC(=O)c1ccc(Cl)cc1` was run?
**A.** 5 of 6

**Q.** And the survivor count (dose: 400.0 mg/kg/injection, schedule: Q01DX009 (ip), vehicle: Klucel (hydroxypropylcellulose) (HPC))?
**A.** 3 of 6

**Q.** With `Clc1ccc(C[P+](c2ccccc2)(c2ccccc2)c2ccccc2)c(Cl)c1` as the compound, how does the survivor count (dose: 18.0 mg/kg/injection, schedule: Q01DX009 (ip), vehicle: saline) read?
**A.** 2 of 6

**Q.** What about the survivor count (dose: 18.75 mg/kg/injection, schedule: Q01DX001 (ip), vehicle: water) of the same compound?
**A.** 2 of 6

**Q.** What about the survivor count (dose: 25.0 mg/kg/injection, schedule: Q01DX009 (ip), vehicle: saline with Tween-80) of the same compound?
**A.** 0 of 6

**Q.** What about the survivor count (dose: 36.0 mg/kg/injection, schedule: Q01DX009 (ip), vehicle: saline) of the same compound?
**A.** 0 of 6

**Q.** And the survivor count (dose: 37.5 mg/kg/injection, schedule: Q01DX001 (ip), vehicle: water)?
**A.** 0 of 6

**Q.** What about the survivor count (dose: 100.0 mg/kg/injection, schedule: Q01DX001 (ip), vehicle: saline) of the same compound?
**A.** 0 of 6

**Q.** And the survivor count [3]?
**A.** 0 of 6

**Q.** What about the survivor count [1] of the same compound?
**A.** 0 of 6

**Q.** And the survivor count (dose: 200.0 mg/kg/injection, schedule: Q04DX003 (ip), vehicle: saline with Tween-80)?
**A.** 0 of 6

**Q.** And the survivor count [2]?
**A.** 0 of 6

**Q.** What about the survivor count [4] of the same compound?
**A.** 0 of 6

**Q.** How did the survivor count (dose: 400.0 mg/kg/injection, schedule: Q01DX009 (ip), vehicle: saline) turn out when `C1CCN(SN2CCCCC2)CC1` was run?
**A.** 1 of 6

**Q.** Which survivor count [4] does the source give for `CCOC(=O)c1ccc(NC(=S)NC(=O)C(C)Oc2ccccc2)cc1` (stereo not given) here?
**A.** 6 of 6

**Q.** For `O=C1NCC(Nc2ccccc2Cl)C(=O)N1` (stereo not given), which survivor count (dose: 200.0 mg/kg/injection, schedule: Q01DX Z (ip), vehicle: saline) is on record?
**A.** 6 of 6

**Q.** Which survivor count (dose: 1.0 mg/kg/injection, schedule: Q01DX009 (ip), vehicle: other) does the source give for `O=C(CC(O)(C(F)(F)F)C(F)(F)F)CC(O)(C(F)(F)F)C(F)(F)F` here?
**A.** 3 of 6

**Q.** What about the survivor count (dose: 4.0 mg/kg/injection, schedule: Q04DX003 (ip), vehicle: other) of the same compound?
**A.** 2 of 6

**Q.** What about the survivor count (dose: 6.25 mg/kg/injection, schedule: Q04DX003 (ip), vehicle: other) of the same compound?
**A.** 1 of 6

**Q.** And the survivor count (dose: 10.0 mg/kg/injection, schedule: Q01DX009 (ip), vehicle: saline with Tween-80)?
**A.** 0 of 6

**Q.** And the survivor count (dose: 12.5 mg/kg/injection, schedule: Q04DX003 (ip), vehicle: other)?
**A.** 0 of 6

**Q.** For `COc1ccc(-c2cc(C(=O)N/N=C/c3ccc([N+](=O)[O-])cc3)c3ccc(C)cc3n2)cc1OC`, which survivor count [3] is on record?
**A.** 6 of 6

**Q.** `C=CC(=O)OCC(C)([N+](=O)[O-])[N+](=O)[O-]` was tested. Which survivor count (dose: 200.0 mg/kg/injection, schedule: Q01DX009 (ip), vehicle: saline with Tween-80) did it give?
**A.** 1 of 6

**Q.** And the survivor count [4]?
**A.** 0 of 6

**Q.** `CC1c2ncnc(N)c2CN1C(=O)c1ccccc1` (stereo not given) was tested. Which survivor count (dose: 400.0 mg/kg/injection, schedule: Q01DX001 (ip), vehicle: carboxymethylcellulose (CMC)) did it give?
**A.** 0 of 4

**Q.** `Cc1ccc(C(=O)C(C)CN2CCCCC2)cc1` (stereo not given) was tested. Which survivor count [2] did it give?
**A.** 0 of 4

**Q.** How did the survivor count (dose: 400.0 mg/kg/injection, schedule: Q04DX003 (ip), vehicle: water) turn out when `CCN(CC)CCCNC(C)CCCN(CC)CC` (stereo not given) was run?
**A.** 3 of 6
